Test results: patent US20050267019A1, “Echinocandin derivatives, their method of preparation and their application as anti-fungal agents” (priority 1997, published 2005)
Structures can show the parent of a compound that is named as a salt. At least one peptide structure holds a part that was inferred or is arguable (an end, a ring closure or a residue).

Tested on: Glucane Synthesis of Candida albicans
Experiment: Inhibition of the glucane synthesis of Candida albicans (membrane preparation, 14C-UDP glucose incorporation)
Format: biochemical
Settings: purified Candida albicans membranes, 25° C., 1 hour, result in words

SMILES | Inhibition of the glucane synthesis of Candida albicans
CCC(C)CCCCCCCCCCC(=O)N[C@H]1CC(=NNC(=N)N)CNC(=O)[C@@H]2[C@@H](O)[C@@H](C)CN2C(=O)[C@H](CO)NC(=O)[C@H]([C@H](O)Cc2ccc(O)cc2)NC(=O)[C@@H]2C[C@@H](O)CN2C(=O)[C@H]([C@@H](C)O)NC1=O (mixture of isomers) [Example 11, (±) Trifluoroacetate of 1-[4-[(aminoiminomethyl)hydrazono]-N2-(12-methyl-1-oxotetradecyl)-L-ornithine]4-[4-(4-hydroxyphenyl)-L-threonine]-5-L serine echinocandin B] | good activity
CCC(C)CCCCCCCCCCC(=O)N[C@H]1CC(NCCN)CNC(=O)[C@@H]2[C@@H](O)[C@@H](C)CN2C(=O)[C@H](CO)NC(=O)[C@H]([C@H](O)Cc2ccc(O)cc2)NC(=O)[C@@H]2C[C@@H](O)CN2C(=O)[C@H]([C@@H](C)O)NC1=O (single isomer, unassigned) [Example 9, Trifluoroacetate of 1-[4-[(2-aminoethyl)amino]-N2-(12-methyl-1-oxotetradecyl)-L-ornithine]4-[4-(4-hydroxyphenyl)-L-threonine]-5-L serine echinocandin B (isomer A and isomer B)] | good activity
